This note sets out measurements from the supplement of paper PMC8551327.

Where a name gives a salt, the structure may show the parent alone. The list shows a part of the results. Cut-off read from the data, not from the text of the source: active = 1.25 or more and inactive = the rest. Repeats are few or missing, and single values can be far off.

This assay relates to Kcc2-LUC knock-in mouse primary cortical neurons (Kcc2 promoter reporter). The assay can be described thus: Kcc2 promoter-driven luciferase activity relative to vehicle control (fold of vehicle (ratio)); higher = stronger Kcc2 promoter activation (Kcc2 expression enhancer). The settings on record: 100 nM; 48 h.
Turning to `COc1ccc2cc(CN3CCC(C4CCN(Cc5ccc6cc(OC)ccc6c5)CC4)CC3)ccc2c1`, the “Kcc2 promoter-driven luciferase activity” value was inactive: 0.97.

For the molecule `O=C1c2ccccc2C(=O)c2c(O)c(O)cc(O)c21`, the “Kcc2 promoter-driven luciferase activity” value is inactive: 1.15.

As to `COC(=O)c1ccc(NCc2cc(O)ccc2O)cc1` [Methyl 4-(2,5-dihydroxyphenyl methylamino) benzoate], the “Kcc2 promoter-driven luciferase activity” value was inactive: 1.04.

As to `CNCC(=O)NC(CO)C(=O)NC(CO)C(=O)NC1C(C(N)=O)OC(n2ccc(N)nc2=O)C(O)C1O` (centres undefined) [Aspiculamycin Hydrochloride], the “Kcc2 promoter-driven luciferase activity” value is active: 1.25.

Regarding `CN(C)CCCN1c2ccc3ccccc3c2Sc2cccc(Cl)c21`, the “Kcc2 promoter-driven luciferase activity” value is inactive: 1.07.

For the molecule `COc1c2occc2c(OC)c2c(=O)cc(C)oc12` [Khellin], the “Kcc2 promoter-driven luciferase activity” value was inactive: 1.08.

As for `CCCCCCCCCCCCCCCCCCOCC(COP(=O)([O-])OCC[N+](C)(C)C)OC` (centres undefined) [Edelfosine], the “Kcc2 promoter-driven luciferase activity” value is inactive: 1.07.

With `N#CC(=S)Nc1ccc(Cl)c(Cl)c1` [1-Cyano-N-(3,4-dichlorophenyl)methanethioamide], the “Kcc2 promoter-driven luciferase activity” value was inactive: 1.08.

`O=S(=O)(O)SC/C=C/CSS(=O)(=O)O` [Disodium (E)-1,4-bis(sulfonatosulfanyl)but-2-ene]: the “Kcc2 promoter-driven luciferase activity” value was inactive: 0.72.

Consider `CCCCS(=N)(=O)CCC(N)C(=O)O` (centres undefined) [Buthionine Sulfoximine], for which the “Kcc2 promoter-driven luciferase activity” value was inactive: 0.6.

Consider `CC1CC(C)(O)C2C3(C)CCCC2(COC3=O)C12CCC1(CCOC1=O)O2` (centres undefined) [Leonotis Nepetaefolia Extract], for which the “Kcc2 promoter-driven luciferase activity” value is inactive: 1.08.

`C[C@H]1O[C@@H](c2ccc3c(c2O)C(=O)C2=C(C3=O)[C@@]3(O)C(=O)C[C@](C)(O)C[C@@]3(O)C=C2)C[C@@H](O)[C@@H]1O` [Aquaymycin]: the “Kcc2 promoter-driven luciferase activity” value was inactive: 1.24.

Consider `Cc1cc(O)c(C(C)C)cc1C1(c2cc(C(C)C)c(O)cc2C)OC(=O)c2ccccc21` [Thymophthalein], for which the “Kcc2 promoter-driven luciferase activity” value is inactive: 0.79.

For the molecule `C[C@@H]1O[C@@H](CC(=O)O)CC2=C1C(=O)c1c(O)cccc1C2=O` [Nanafrocin], the “Kcc2 promoter-driven luciferase activity” value was inactive: 0.925.

As to `CON(C)C(=O)C1CCCO1` (centres undefined) [N-methoxy-N-methyloxolane-2-carboxamide], the “Kcc2 promoter-driven luciferase activity” value is inactive: 1.24.

`COc1cc2c[n+](C)c3c4cc5c(cc4ccc3c2cc1OC)OCO5` [Nitidine chloride]: the “Kcc2 promoter-driven luciferase activity” value was inactive: 1.

For `C/C(=N\Nc1nc2ccccc2s1)c1ccncn1`, the “Kcc2 promoter-driven luciferase activity” value is inactive: 0.57.

Turning to `Cc1cn(C2CC(O)C(CO)O2)c(=O)[nH]c1=O` (centres undefined) [Deoxythymidin], the “Kcc2 promoter-driven luciferase activity” value is inactive: 1.22.

Turning to `CN(C)CCNC(=O)c1cccc2[nH]c(-c3ccncc3)nc12` [1H-Benzimidazole-4-carboxamide, hydrochloride], the “Kcc2 promoter-driven luciferase activity” value was inactive: 1.13.

With `COC(=O)C1C(O)CCC2CN3CCc4c([nH]c5ccccc45)C3CC21` (stereo not drawn) [beta-Yohimbine], the “Kcc2 promoter-driven luciferase activity” value was inactive: 1.09.

For the molecule `CSc1ccc(NC(=O)CCl)cc1` [2-Chloro-N-(4-methylsulfanylphenyl)acetamide], the “Kcc2 promoter-driven luciferase activity” value is active: 1.33.

In the case of `CC(C)=CCc1c2c(c3occ(-c4ccc(O)c(O)c4)c(=O)c3c1O)C=CC(C)(C)O2` [Pomiferin], the “Kcc2 promoter-driven luciferase activity” value is inactive: 0.877.

Consider `O=S1(=O)CCN(c2ccccc2CC(c2c[nH]c3ccccc23)c2c[nH]c3ccccc23)CC1`, for which the “Kcc2 promoter-driven luciferase activity” value is inactive: 0.48.

Regarding `CC1=C/C(=N\OCC(=O)O)CC(c2ccc(C(C)C)cc2)C1` (centres undefined), the “Kcc2 promoter-driven luciferase activity” value is inactive: 0.84.

Turning to `COc1ccc(C2C(C)C(=O)C(C)C(c3ccc(OC)cc3)N2N=O)cc1` (centres undefined), the “Kcc2 promoter-driven luciferase activity” value is inactive: 1.16.

With `O=C1C=C(Nc2ccccc2C(=O)CC(=O)C(=O)Nc2ccc(Cl)c(Cl)c2)c2ccccc2C1=O`, the “Kcc2 promoter-driven luciferase activity” value is inactive: 1.11.

Take `O=C1/C(=C/c2cccs2)Oc2ccccc21` [(Z)-2-(2-Thenylidene)benzofuran-3(2H)-one]: the “Kcc2 promoter-driven luciferase activity” value was inactive: 1.15.

For `COc1ccc2nc3cc([N+](=O)[O-])ccc3c(NNc3ccccc3)c2c1` [1-(2-Methoxy-6-nitroacridin-9-yl)-2-phenylhydrazine], the “Kcc2 promoter-driven luciferase activity” value is inactive: 0.92.

Consider `COc1ccc2cc1Oc1ccc(cc1)CC1c3c(cc(OC)c4c3Oc3cc5c(cc3O4)CCNC5C2)CCN1C` (centres undefined) [Trigilletine], for which the “Kcc2 promoter-driven luciferase activity” value is inactive: 0.81.

In the case of `CC(C)c1ccc2nc3ccc(C(=O)NCCN(C)C)cn3c(=O)c2c1`, the “Kcc2 promoter-driven luciferase activity” value is inactive: 1.12.

With `CC[C@]1(O)C[C@H]2CN(CCc3c([nH]c4ccccc34)[C@@](C(=O)OC)(c3cc4c(cc3OC)N(C=O)[C@H]3[C@@](O)(C(=O)OC)[C@H](OC(C)=O)[C@]5(CC)C=CCN6CC[C@]43[C@@H]65)C2)C1` [Vincristine sulfate], the “Kcc2 promoter-driven luciferase activity” value was inactive: 1.09.

In the case of `COc1cc2c3c(c4ccc(OC)c(OC)c4c2cc1OC)CN1CCC[C@@H]1C3` [Tylocrebrine], the “Kcc2 promoter-driven luciferase activity” value was active: 1.42.

As for `O=C1c2ccccc2-c2c1c1ccccc1c(=O)n2Cc1ccccc1` [6-Benzylindeno[1,2-c]isoquinoline-5,11-dione], the “Kcc2 promoter-driven luciferase activity” value was inactive: 0.8.

`N#CC1=C(N)Oc2c(ccc3cccnc23)C1c1ccccc1` (centres undefined) [2-Amino-4-phenyl-4H-pyrano[3,2-h]quinoline-3-carbonitrile]: the “Kcc2 promoter-driven luciferase activity” value is active: 2.06.

In the case of `CN(C)c1cccc(/C=C(\C#N)c2ccccc2)c1` [(Z)-3-[3-(dimethylamino)phenyl]-2-phenylprop-2-enenitrile], the “Kcc2 promoter-driven luciferase activity” value is inactive: 0.97.

`CN(C)CCN1C(=O)c2cccc3cc(N)cc(c23)C1=O` [Amonafide]: the “Kcc2 promoter-driven luciferase activity” value is inactive: 0.84.

Regarding `COc1cc(NS(C)(=O)=O)ccc1Nc1c2ccccc2nc2ccccc12` [Amsacrine], the “Kcc2 promoter-driven luciferase activity” value was inactive: 0.99.

For `O=C1NC(=O)[C@H]2[C@H]3C=C[C@@H]([C@@H]12)[C@@H]1[C@H]2C(=O)NC(=O)[C@H]2[C@H]31` [Mitindomide], the “Kcc2 promoter-driven luciferase activity” value was inactive: 0.64.

In the case of `Cc1cc(O)c2c(c1)C(=O)c1cc(O)cc(O)c1C2=O` [Emodin], the “Kcc2 promoter-driven luciferase activity” value was inactive: 1.18.
